Assay results as given in PubChem BioAssay AID540276 (National Center for Advancing Translational Sciences (NCATS), 2011).
Values joined by “and” are separate entries in the source; they are usually repeats but may differ in a detail not shown here. Identical values can stand only once. Out of some 300,000 compounds screened, about 5,400 (1.8%) were called active. The shares of active, inactive and inconclusive entries below differ from those in the screen. Calls come from the whole dose curve; tested in HEK293 cells. Where the call is inconclusive, the potency comes from a doubtful curve fit.

test: qHTS for inhibitors of binding or entry into cells for Marburg Virus; conditions: Marburg virus pseudotyped entry inhibition, cell reporter; series mostly up to 37.8 µM
Potency is the fitted concentration of half-maximal effect.

SMILES | Potency
Cc1cc(C)c(NC(=O)NC(=O)c2cccc(F)c2)c(C)n1 | inactive
COc1ccc(O)c(/C=N\NC(=O)CCn2nnc3ccccc32)c1 | inconclusive: 35.5 µM [inhibitor, single point]
NS(=O)(=O)c1cc(C(=O)OCC(=O)Nc2ccccc2[N+](=O)[O-])ccc1Cl | inactive
ClC1(Cl)CC1Cn1cnc2ccccc21 (stereo unspecified) | inconclusive: 3.16 µM [activator, single point]
CCOC(=O)c1c(C)oc(NC(=O)COc2ccc(Cl)cc2C)c1C#N | inactive
CCOC(=O)c1cccc(NC(=O)CCn2c(=O)oc3ccccc32)c1 | inactive and inconclusive: 631 nM [inhibitor, full curve, poor fit]
CCCn1c(CN(Cc2ccccc2)Cc2ccccc2)nc2c1c(=O)n(C)c(=O)n2C | inconclusive: 1.46 µM [inhibitor, partial curve, poor fit]
Cc1cccc(Nc2nc(-c3ccccn3)cs2)n1 | inconclusive: 0.517 µM [activator, full curve, poor fit]
Cc1cc(OCC(O)CN2CCN(C)CC2)ccc1C(C)C (stereo unspecified) | inconclusive: 35.5 µM [inhibitor, single point]
C#CCCCON=C1C[C@@H](O)[C@H](O)[C@H]2[C@@H]3C(=O)N(c4cccc(Oc5ccccc5)c4)C(=O)[C@@H]3CC[C@@H]12 | inconclusive: 0.376 µM [inhibitor, partial curve]
CC(=O)c1cc(-c2ccccc2)n(CCC(=O)NC2CCC(C)CC2)c1C (stereo unspecified) | inconclusive: 35.5 µM [inhibitor, partial curve, poor fit]
CCSc1ccccc1C(=O)N1CCN(c2ccc([N+](=O)[O-])cc2)CC1 | inconclusive: 9.2 µM [inhibitor, partial curve, poor fit]
CN(C)/C=N/c1ncc(-c2ncc(C(F)(F)F)cc2Cl)cn1 | inactive
CCN(CC)CCCn1c(C)cc2c(c1=O)[C@@H](c1cccc(Cl)c1)C(C#N)=C(N)O2 | active: 11.2 µM
CCOC(=O)c1cc(NC(=O)c2cccs2)ccc1N1CCOCC1 | inconclusive: 0.891 µM [activator, full curve]
CN1C(=O)CC(N2CCC(C(N)=O)CC2)C1=O (stereo unspecified) | inactive
O=C(CSc1nncn1-c1ccccc1)Nc1cccc(S(=O)(=O)N2CCCCC2)c1 | inactive
COc1cccc(C2c3c(-c4cc(Cl)c(C)cc4O)n[nH]c3C(=O)N2Cc2cccnc2)c1 (stereo unspecified) | inactive
COc1ccc(OC)c(CN2CCN(C(=O)c3cccc(S(=O)(=O)Nc4ccc(C)cc4)c3)CC2)c1 | inconclusive: 12.6 µM [inhibitor, single point]
COCCNC(=O)CN1CCC(n2c(C)nc3cc(C(F)(F)F)ccc32)CC1 | inconclusive: 2.06 µM [inhibitor, single point]
CCOC(=O)Cn1c2ccccc2c2nc3ccccc3nc21 | inactive
CCOC(=O)C1CCN(S(=O)(=O)c2cccc(-c3cn4cccc(C)c4n3)c2)CC1 | inconclusive: 7.94 µM [inhibitor, partial curve]
O=C(O)C/C=C(/NC(=O)OCc1ccccc1)C(=O)OCc1ccccc1 | inconclusive: 1.26 µM [inhibitor, partial curve, poor fit]
Cc1ccsc1/C=N/NC(=O)c1ccccn1 | inconclusive: 4.11 µM [activator, single point]

SMILES | Potency
COc1ccc(CNC(=O)CSc2nc3ccc(C)cc3[nH]2)cc1 | inconclusive: 35.5 µM [activator, single point]
COC(=O)c1cc(OC)c(OC)cc1NC(=O)c1csc(C)c1 | inactive
CCCc1nc2ccccc2n1CCc1ccccc1 | inconclusive: 14.1 µM [inhibitor, single point]
Cc1cccc(NC(=O)CSc2cc(C(=O)c3nccn3C)c3ccccc3n2)c1 | inactive
COC(=O)c1ccc(CSc2nc3c(cnn3-c3ccc(C)c(C)c3)c(=O)[nH]2)o1 | inconclusive: 6.31 µM [activator, full curve, poor fit]
COc1ccc(OCc2cc(C(=O)NCc3cccc(C)n3)no2)c(Cl)c1 | inconclusive: 10 µM [activator, partial curve, poor fit]
CC(Oc1ccc(Br)cc1)C(=O)Nc1ccncc1 (stereo unspecified) | inconclusive: 35.5 µM [inhibitor, partial curve, poor fit]
COc1cc(C(=S)N2CCOCC2)cc(OC)c1OC(=O)c1ccc(F)cc1 | inconclusive: 14.1 µM [inhibitor, single point]
O=[N+]([O-])c1cccc(S(=O)(=O)N/N=C\c2ccc3c(c2)OCO3)c1 | inactive
N#CC(C#N)=C1C=C2C=C(N3CCCCCC3)CCC2CC1 (stereo unspecified) | inconclusive: 29.1 µM [inhibitor, single point]
O=C(/C=C/Nc1ccc(S(=O)(=O)Nc2cnc3ccccc3n2)cc1)c1ccccc1 | inactive
O=C(NCCCN1CCN(c2cccc(Cl)c2)CC1)c1nc(-c2ccncc2)no1 | inconclusive: 32.6 µM [inhibitor, single point]
COc1ccc(-n2c(C)nc3c(cnn3-c3ccccc3)c2=O)cc1 | inconclusive: 29.1 µM [inhibitor, single point]
COc1ccc(-c2nnc(SCC3CCCO3)n2C)cc1 (stereo unspecified) | inconclusive: 15.8 µM [activator, single point]
NS(=O)(=O)c1ccc(NC(=O)COC(=O)COc2ccc(Cl)cc2)cc1 | inactive
CCN(CC)S(=O)(=O)c1ccc(C(=O)NCC(=O)NCCCc2ccccc2)cc1 | inconclusive: 1 µM [inhibitor, full curve, poor fit]
COC(=O)C(=NNc1c(C)n(C)n(-c2ccccc2)c1=O)C(=O)OC | inactive
COc1ccc(Nc2nc(-c3cccc([N+](=O)[O-])c3)nc3ccccc23)cc1 | active: 14.6 µM
CC(C)CN(C(=O)COC(=O)c1ccc2c(c1)NC(=O)CS2)C1CCS(=O)(=O)C1 (stereo unspecified) | inactive
Cc1cc(NC(=O)CN2CCCCCCC2)no1 | inactive
O=[N+]([O-])c1cccc(NC(=S)N2CCN(c3ccccn3)CC2)c1 | inconclusive: 35.5 µM [inhibitor, single point]
Cc1cccc(Nc2nc3c(s2)CCCC3)c1 | inconclusive: 1.3 µM [activator, full curve, poor fit]
CCN(CC)c1ccc(N2C(=NC(=O)C3CC3)SC3CS(=O)(=O)CC32)cc1 (stereo unspecified) | inactive
COc1ccccc1CNC(=O)Cn1cnc2ccccc2c1=O | inconclusive: 2.91 µM [activator, full curve, poor fit]

SMILES | Potency
CCOC(=O)c1ccc(NC(=O)COc2ccc(-n3cnnn3)cc2)cc1 | inconclusive: 5.62 µM [inhibitor, single point]
O=C(Nc1ncc2c(n1)-c1ccccc1OC2)c1ccccc1Cl | inconclusive: 4.11 µM [inhibitor, full curve, poor fit]
Clc1ccc(-c2nnc(N3CCCC3)nn2)cc1 | inconclusive: 3.26 µM [activator, single point]
COc1ccc(S(=O)(=O)N(CC(=O)N2CCc3ccccc3C2)c2ccc(C)cc2)cc1 | inactive
O=C(C(Br)=Cc1ccccc1)c1ccccc1 | active: 5.01 µM
CCOC(=O)c1cnc(SCC#N)nc1N | inactive
O=C(O)CCN=Cc1c(O)c2ccccc2oc1=O | inconclusive: 20 µM [inhibitor, partial curve, poor fit]
Fc1ccc(OCCOCCNC[C@H]2CCCO2)cc1 | inconclusive: 11.2 µM [inhibitor, single point]
CC(=O)OCCn1c(C)[n+](CCOC(C)=O)c2cc(Cl)c(Cl)cc21 | inactive
Cc1nc2cc(-c3ccccc3)ccc2o1 | inconclusive: 35.5 µM [activator, single point]
CCc1ccc(-c2ccc(SCc3ccccn3)nn2)cc1 | inconclusive: 35.5 µM [inhibitor, single point]
COc1ccc(C)cc1N(C(=O)Cn1nnc(-c2ccc(C)o2)n1)C(C(=O)NC1CCCC1)c1ccncc1 (stereo unspecified) | inconclusive: 10 µM [inhibitor, partial curve, poor fit]
CCCCN(C)CCNC(=O)c1c[nH]c2ccc(S(=O)(=O)N(CC)CC)cc2c1=O | inactive
COc1ccc(C(=O)CC(=O)C(=O)Nc2cc(OC)ccc2OC)cc1 | inactive
CC(NC(=O)COC(=O)c1cn(-c2ccccc2)nc1-c1cccs1)c1ccccc1 (stereo unspecified) | inactive
CC(C)C(c1nnnn1Cc1ccccc1)N(Cc1ccco1)Cc1cccs1 (stereo unspecified) | inconclusive: 20 µM [inhibitor, partial curve, poor fit]
O=C(/C=C/N1CCOCC1)c1cc2ccccc2o1 | inconclusive: 3.55 µM [activator, single point]
Cc1nn(CCCC(=O)NCc2ccccc2Br)c(=O)c2c1sc1ccccc12 | inconclusive: 35.5 µM [activator, single point]
Cc1ccc(C(=O)Nc2ccc(Cl)cc2C)c(Cl)c1 | inactive
COc1ccc2nc(SCc3cccc(C)c3)nc(C)c2c1 | inconclusive: 3.98 µM [activator, partial curve, poor fit]
Cc1ccc(S(=O)(=O)/C(C#N)=C/c2ccccc2OCc2ccccc2)cc1 | inconclusive: 12.6 µM [activator, single point]
CCOC(=O)CSc1nc2ccsc2c(=O)[nH]1 | inconclusive: 8.91 µM [inhibitor, partial curve, poor fit]
CC[n+]1c(/C=C/N(C)c2ccccc2)oc2ccc(F)cc21 | inconclusive: 2 µM [inhibitor, partial curve, poor fit]
